Some of the results follow.
Compound: Cc1cc(ccc1-c1ccccc1)C(=O)N1CCCN(CC1)C(=O)CCl [compound 10]
Assay: probe-labelled cysteine peptide fold change vs DMSO (competition) (log2 fold change); higher = less target engagement (more negative = stronger competition)
Conditions: THP-1, incubation time: 4 h
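Further: competitive profiling in live THP-1 cells: cysteine peptides tagged with an iodoacetamide desthiobiotin (IA-DTB) probe, intensity after compound treatment relative to DMSO-treated cells.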

Target	probe-labelled cysteine peptide fold change (10 µM)	probe-labelled cysteine peptide fold change (50 µM)
RB1_P06400_706_HLDQIMMCSMYGICK (UniProt P06400)	0.352	0.544
RANGAP1_P46060_573_ALAPLLLAFVTKPNSALESCSFAR (UniProt P46060)	-0.413	0.0613
RANBP2_P49792_3122_VIPDFVCQGGDITK (UniProt P49792)	-0.103	0.0177
RCC2_Q9P258_158_TVVSGSCAAHSLLITTEGK (UniProt Q9P258)	0.0546	0.205
RCE1_Q9Y256_314_LYGSLPLCVLLER (UniProt Q9Y256)	-0.0215	0.0721
RBM15B_Q8NDT2_323_GRPYGYPAVCEEDLMPEDDQR (UniProt Q8NDT2)	-0.123	-0.481
RASSF2_P50749_12_MDYSHQTSLVPCGQDK (UniProt P50749)	-0.0227	-0.106
RASAL3_Q86YV0_546_CPASELPEHQAR (UniProt Q86YV0)	-0.235	-0.35
RASSF4_Q9H2L5_236_DCEYPLISR (UniProt Q9H2L5)	-0.0856	-0.0498
RANBP2_P49792_2710_ECIIVWEK (UniProt P49792)	-0.195	-0.0282
RCHY1_Q96PM5_105_QYHCENCGICR (UniProt Q96PM5)	0.0335	0.0257
RBM34_P42696_196_TVFVGNLPVTCNK (UniProt P42696)	0.0157	-0.186
RBBP6_Q7Z6E9_161_KPLGPPPPSYTCFR (UniProt Q7Z6E9)	0.189	0.216
RB1CC1_Q8TDY2_946_LLEMENIMHSQNCEIK (UniProt Q8TDY2)	-0.15	-0.0184
RBM14_Q96PK6_90_IFVGNVSAACTSQELR (UniProt Q96PK6)	0.204	0.0681
RBM25_P49756_132_LQAFGFCEYKEPESTLR (UniProt P49756)	-0.148	-0.0661
RC3H1_Q5TC82_143_LVTLVHCQLVEEEGR (UniProt Q5TC82)	0.131	0.0901
RBM26_Q5T8P6_53_ALCIDQLDVFLQK (UniProt Q5T8P6)	0.15	0.248

Target	probe-labelled cysteine peptide fold change (10 µM)	probe-labelled cysteine peptide fold change (50 µM)
RBM5_P52756_649_MACLLCR (UniProt P52756)	-0.0352	0.105
RBKS_Q9H477_59_GANQCVQAAR (UniProt Q9H477)	-0.07	-0.0949
RAVER1_Q8IY67_224_CLCVDRLPPGFNDVDALCR (UniProt Q8IY67)	-0.000295	-0.217
RANBP2_P49792_707_KAEDIENDALSPEEQEECK (UniProt P49792)	0.21	0.109
RANBP6_O60518_952_SLCSEAVPLLVK (UniProt O60518)	-0.17	-0.308
RCC2_Q9P258_209_LIEGLSHEVIVSAACGR (UniProt Q9P258)	0.0481	0.0891
RBBP4_Q09028_167_HPSKPDPSGECNPDLR (UniProt Q09028)	0.000782	0.0762
RANBP1_P43487_99_ICANHYITPMMELK (UniProt P43487)	0.31	0.438
RCC2_Q9P258_337_DVACGANHTLVLDSQK (UniProt Q9P258)	-0.114	0.297
RCC1L_Q96I51_181_VLQVSCGR (UniProt Q96I51)	0.107	0.0672
RAP1A_P62834_118_VKDTEDVPMILVGNKCDLEDER (UniProt P62834)	-0.426	-1
RBM23_Q86U06_215_GIAYVEFCEIQSVPLAIGLTGQR (UniProt Q86U06)	-0.337	0.115
RBM22_Q9NW64_71_KTEVCQTCSK (UniProt Q9NW64)	-0.0894	-0.279
RAVER1_Q8IY67_297_VSFCAPGPPGR (UniProt Q8IY67)	-0.0288	-0.0827
RBM22_Q9NW64_179_RGEECPYR (UniProt Q9NW64)	0.137	0.000136
RASSF2_P50749_90_IRPPPSSSSWHSGCNLGAQGTTLKPLTVPK (UniProt P50749)	-0.112	-0.92
RANBP10_Q6VN20_100_ATHPIPAACGIYYFEVK (UniProt Q6VN20)	-0.173	0.213
RALBP1_Q15311_411_RQEFLLNCLHR (UniProt Q15311)	0.0789	0.0545

Complete entries from above.
RANBP2_P49792_3122_VIPDFVCQGGDITK (UniProt P49792) reads probe-labelled cysteine peptide fold change (10 µM) = -0.103; probe-labelled cysteine peptide fold change (50 µM) = 0.0177
RANBP2_P49792_707_KAEDIENDALSPEEQEECK (UniProt P49792) reads probe-labelled cysteine peptide fold change (10 µM) = 0.21; probe-labelled cysteine peptide fold change (50 µM) = 0.109

From the supplement of paper PMC12067093, “Discovery and optimisation of a covalent ligand for TRIM25 and its application to targeted protein ubiquitination” (Chemical Science, 2025)
